Measured values reported in PubChem BioAssay AID493014 (National Center for Advancing Translational Sciences (NCATS), 2011).
The campaign covered roughly 340,000 compounds. About 170 (0.05%) were called active. This list was built around the results that the source calls inconclusive (neither active nor inactive); the mix of calls is not that of the screen. Calls follow the shape of the dose curve; as a rule, active = well fitted inhibition curve with a large enough effect in the signal ratio, with a control signal flat (not every such curve was filed as active); inconclusive = small, poorly fitted or top-dose-only effect, or effect the other way, or a change in a side signal; inactive = flat fitted curve, though single readings scatter; the % refers to the signal ratio. Potencies beside an inconclusive call are fits to weak or partial responses and may not hold up.

assay: qHTS Assay to Find Inhibitors of Chronic Active B-Cell Receptor Signaling; settings: ABC-DLBCL IkBa-CBG/CBR reporter, luminescence ratio (green luciferase fused to IkBa over red control in TMD8 lymphoma cells), 4 h; activity change, negative = inhibition: at 46.1 µM (top of the series);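 as to activity change, negative = inhibition: plate controls were basal doxycycline-induced cells for no effect and cells given 10 µM MG132 for full effect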
Summary of the method: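 TMD8 human ABC-DLBCL cells with doxycycline-inducible IκBα–green luciferase fusion and unfused red luciferase, in 0.5% FBS medium; compounds up to 46 uM, 4 h at 37C. Green/red luminescence ratio, filter-overlap corrected, fitted to concentration-response curves.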
Potency is read from the fitted curve at half-maximal effect.

| SMILES | activity change, negative = inhibition | Potency |
| --- | --- | --- |
| CCc1noc(C)c1C(=O)Nc1cccc2ncccc12 | inconclusive: 11.6% |  |
| CC(OC(=O)c1cnc2ccccc2n1)c1ccccc1Cl (stereo not given) | inconclusive: 20.2% |  |
| O=C(NCc1ccncc1)NC12CC3CC(CC(C3)C1)C2 | inconclusive: 2.58% |  |
| CCc1ccc(C(O)(c2ccccc2OC)C(CN2CCOCC2)c2ccccc2)cc1 (stereo not given) | inconclusive: 13.4% |  |
| CN1CCN(c2nc(-c3ccc(Cl)cc3)nc3ccccc23)CC1 | inactive: 0.857% |  |
| CCc1cccc(NC(=O)c2sc3nc4n(c(=O)c3c2C)CCC4)c1 | inactive: 4.55% |  |
| Cc1cc(C)c2c(C)nn(C3CCCCC3)c2n1 | inconclusive: -1.94% |  |
| C/C(=N\NC(=O)c1ccccc1F)c1ccccn1 |  | inconclusive: 35.5 µM [cytotoxic, single point] |
| CCC1SC(CC)C(=O)N(CC(=O)Nc2ccc3c(c2)OCO3)C1=O (stereo not given) | inconclusive: 2.97% |  |
| Cc1ccccc1-c1nc(S(=O)(=O)c2ccc(Cl)cc2)c(NCCN2CCOCC2)o1 | inconclusive: -2.75% |  |
| CC(C)NC(=O)c1onc(CSc2ccccc2)c1C(=O)O |  | inconclusive: 35.5 µM [rising, single point] |
| O=C(c1cccs1)N1CCN(C(=O)c2cn(-c3ccccc3)nc2-c2ccccc2)CC1 | inconclusive: -0.815% |  |
| CCOc1ccc2c(O)csc2c1 |  | inconclusive: 6.51 µM [rising, partial curve, poor fit] |
| Nc1n[nH]c(=S)n1-c1ccc(Cl)cc1 | inconclusive: -19.4% |  |
| Cc1c(C)n(Cc2ccc(F)cc2)c2ccc(C(=O)NCCCN3CCOCC3)cc12 | inactive: 19% |  |
| Cc1cc(C(=O)Nc2ccccc2Cc2ccccc2)no1 | inconclusive: -9.71% |  |
| Cc1cccc(C)c1NC(=O)c1cc(-c2ccccn2)nc2ccccc12 | inconclusive: 10.5% |  |
| COc1ccc(C(=O)/C=C/Nc2ccc(S(=O)(=O)Nc3cccc(C(C)=O)c3)cc2)cc1 | inconclusive: 29.3% |  |
| O=C(CN1CCN(c2ccccc2)CC1)Nc1ccccc1C(F)(F)F |  | inconclusive: 0.411 µM [rising, partial curve] |
| COC(=O)c1c(-c2ccc(N(C)C)cc2)sc2ccc(OC)cc12 | inconclusive: -1.15% |  |
| CCCOc1ccc(/C(O)=C2/C(=O)C(=O)N(CCCN3CCOCC3)C2c2ccncc2)cc1 (stereo not given) | inactive: 0.6% |  |
| COc1ccc(-c2cc([C@H]3[C@@H]4C=CCC[C@@]4(C)C(=O)N3Cc3ccccc3)ccc2F)cc1OC | inconclusive: -9.82% |  |
| CCOc1ccccc1NC(=O)C(=O)N/N=C/c1cc(Br)ccc1O |  | inconclusive: 12.6 µM [falling, partial curve] |
| S=C(NCCCc1ccccc1)Nc1ccccc1Cl | inconclusive: 0.209% |  |
| CC1CCCN(c2ccc3nc4ccccc4c(=O)n3n2)C1 (stereo not given) |  | inconclusive: 0.562 µM [rising, full curve, poor fit] |
| COc1cccc(NC(=O)CC2SC(=Nc3ccccc3)NC2=O)c1 (stereo not given) | inconclusive: -20% |  |
| CNS(=O)(=O)c1ccc2c(c1)NC(=O)C1CCCN21 (stereo not given) | inconclusive: 6.46% |  |

| SMILES | activity change, negative = inhibition | Potency |
| --- | --- | --- |
| O=C(CSc1ccc2c(c1)OCCO2)Nc1cccnc1Cl |  | inconclusive: 17.8 µM [falling, partial curve] |
| COc1ccc(C(=O)N2CCOCC2)cc1Br | inconclusive: -0.502% |  |
| COc1ccc(NC(=S)NC(=O)c2ccccc2)cn1 |  | inconclusive: 25.1 µM [falling, single point] |
| C=CCN1C(=O)NC(c2ccc(OC)cc2)(C(F)(F)F)S/C1=C(\C#N)c1nnc(N2CCOCC2)n1-c1ccccc1 (stereo not given) | inconclusive: -9.5% |  |
| O=C(NC(=S)Nc1ccccc1C(=O)O)c1cncc(Br)c1 | inconclusive: -20.1% |  |
| COC(=O)c1cc(OC)c(OC)cc1NC(=S)Nc1cc(Cl)ccc1OC |  | inconclusive: 20.6 µM [falling, partial curve] |
| Cc1ccc2nc(-c3ccc(NC(=O)CN4C(=O)c5ccccc5C4=O)cc3)sc2c1 |  | inconclusive: 6.51 µM [rising, partial curve, poor fit] |
| Nc1nc(SCc2nnc(SCC(=O)O)n2-c2ccccc2)nc2sc3c(c12)CCCC3 | inconclusive: 10.2% |  |
| CSc1ccccc1NC(=O)CN(c1ccccc1)S(=O)(=O)N(C)C | inconclusive: 0.379% |  |
| COc1ccccc1NC(=O)c1cc([N+](=O)[O-])ccc1NCCN1C(=O)CCC1=O | inconclusive: 17% |  |
| O=C(NCc1cccs1)c1cc2c(s1)CCCC2 |  | inconclusive: 29.1 µM [falling, single point] |
| O=C(Cc1cccs1)N/N=C\c1ccc(O)cc1 |  | inconclusive: 12.6 µM [falling, partial curve, poor fit] |
| COc1ccc(CC(=O)NCc2nnc(SCC(=O)Nc3nccs3)n2-c2ccccc2)cc1 | inconclusive: -0.611% |  |
| CCN(Cc1ccccc1)C(=O)COC(=O)CNC(=O)c1ccc(C)s1 | inactive: 0.236% |  |
| CCOc1ccc(OCc2ccc(C(=O)Nc3ccc(Cl)cn3)o2)cc1 |  | inconclusive: 16.4 µM [falling, partial curve] |
| CCOc1ccc(S(=O)(=O)N2CCCCC2)cc1NC(=O)CN1C(=O)NC(C)(c2ccc(C)cc2)C1=O (stereo not given) | inactive: 1.89% |  |
| Cc1ccc(CCN2CC(C(=O)O)CC2=O)cc1 (stereo not given) | inconclusive: 5.16% |  |
| CC1Cc2cc(S(=O)(=O)CCC(=O)N3CCN(c4ccccc4)CC3)ccc2N1C(=O)C1CC1 (stereo not given) | inactive: 6.51% |  |
| NS(=O)(=O)c1ccc(Nc2ncccc2[N+](=O)[O-])cc1 | inactive: -9.44% |  |
| O=C(N/N=C/c1cccnc1)c1cc2ccccc2o1 |  | inconclusive: 18.4 µM [falling, single point] |
| OCCCCNCc1cc(Br)ccc1OCc1ccccc1 | inconclusive: -2.11% |  |
| Cn1cccc1/C=C1\SC(=O)N(c2ccc(O)cc2)C1=O |  | inconclusive: 23.1 µM [falling, partial curve] |
| COc1ccccc1/C=N/Nc1nc(C)cc(C)n1 |  | inconclusive: 31.6 µM [rising, single point] |
| Cc1ccccc1C(=O)Oc1ccc2ccc(O)cc2c1 |  | inconclusive: 35.5 µM [falling, single point] |
| CN(/N=C/c1cc(Cl)cc(Cl)c1O)c1c(Cl)cccc1[N+](=O)[O-] | inconclusive: 29% |  |
| Cc1ccc(N(Cc2ccccc2)C(=O)c2cc(S(=O)(=O)N3CCOCC3)ccc2Cl)cc1 | inactive: 4.21% |  |
| Cc1ccc(N(C(=O)Cc2cccs2)C(C(=O)NC2CCCCC2)c2ccccn2)cc1C (stereo not given) | inconclusive: 1.59% |  |

One compound at a time, from the list above.
`O=C(NC(=S)Nc1ccccc1C(=O)O)c1cncc(Br)c1` as listed: activity change, negative = inhibition: inconclusive: -20.1%
`CCc1noc(C)c1C(=O)Nc1cccc2ncccc12` as listed: activity change, negative = inhibition: inconclusive: 11.6%
`Cc1cc(C)c2c(C)nn(C3CCCCC3)c2n1` as listed: activity change, negative = inhibition: inconclusive: -1.94%
`COc1ccc(C(=O)N2CCOCC2)cc1Br` as listed: activity change, negative = inhibition: inconclusive: -0.502%

Further compounds.

| SMILES | activity change, negative = inhibition | Potency |
| --- | --- | --- |
| Cn1c(COc2ccccc2)nnc1SCc1nc2ccccc2[nH]1 | inconclusive: 1.25% |  |
| O=C(C1CCN(S(=O)(=O)c2ccc(F)cc2)CC1)N1CCOCC1 | inactive: 3.68% |  |
| Cc1ccc(NC(=O)CNc2ccccc2N2CCCC2=O)cc1S(=O)(=O)N1CCOCC1 | inconclusive: 6.03% |  |
| O=C(NCc1ccccn1)c1ccc(Cn2c(=S)[nH]c3ccccc3c2=O)cc1 | inconclusive: 1.9% |  |
| O=C(Nc1ccc(F)cc1)C1CCCO1 (stereo not given) | inconclusive: -2.04% |  |
| COc1ccc(N2CCN(CCCNC(=O)CCC(=O)N3CCOc4ccc(Cl)cc43)CC2)cc1 | inactive: -4.97% |  |
| CCc1c(C(=O)NC2CCCC2)csc1C | inconclusive: 0.567% |  |
| Cc1cccc(OCc2nnc(SC(C)C(=O)O)n2Cc2ccccc2)c1 (stereo not given) | inconclusive: -8.56% |  |
| COC(=O)c1cc2ccccc2c(-c2c(OC)c(C(=O)OC)cc3ccccc23)c1OC | inconclusive: 17.6% |  |
| CC(=O)c1c(C(C)=O)c(C)n(Cc2ccc(Cl)cc2)c1C | inconclusive: 18.6% |  |
| Cc1cc(C)cc(S(=O)(=O)c2cnc3ccccc3n2)c1 | inconclusive: 0.27% |  |
| COc1cccc(CC(=O)OCC(=O)N(C)CC(=O)Nc2ccc(F)cc2)c1 |  | inconclusive: 3.66 µM [falling, partial curve, poor fit] |
| Cn1nc([N+](=O)[O-])c(C(C#N)c2ccccn2)c(Cl)c1=O (stereo not given) |  | inconclusive: 35.5 µM [falling, single point] |
| C/C(N)=C(/C#N)C(=O)COC(=O)c1oc2ccccc2c1COC(C)C |  | inconclusive: 4.47 µM [falling, partial curve, poor fit] |
| CCN(CC)C(=O)CSc1nc(N)c(C#N)c(-c2cccs2)c1C#N |  | inconclusive: 1.03 µM [rising, full curve] |
| COc1cc(NC(=O)[C@H](C)NC(=O)N2CCn3c2nc2ccccc23)cc(OC)c1 |  | inconclusive: 17.8 µM [falling, partial curve] |
| O=C(COC(=O)c1cccc(O)c1)Nc1nnc(-c2ccccc2)o1 |  | inconclusive: 20.6 µM [falling, partial curve] |
| Cc1cccc(Cn2c(NCCO)nc3c2c(=O)n(C)c(=O)n3C)c1 | inactive: -2.16% |  |
| Cc1ccc(/C=N/NC(=O)Cc2c[nH]c3ccccc23)c(C)c1 | inconclusive: -16.6% |  |
| CC(=O)Nc1sc(C)c(C)c1CN1CCN(S(=O)(=O)c2ccccc2)CC1 | inconclusive: 10.1% |  |
| N#Cc1ccsc1NC(=O)CSc1nnc(-c2ccccc2)o1 |  | inconclusive: 5.8 µM [falling, single point] |
| CCCCNS(=O)(=O)c1ccc(NS(=O)(=O)c2c(C)cc(C)cc2C)cc1 | inconclusive: 11.8% |  |
| O=c1c2[nH]c3ccc(F)cc3c2ncn1CCC1=CCCCC1 | inconclusive: 18.9% |  |
| CN(Cc1nc2ccccc2c(=O)[nH]1)C(=O)COc1ccccc1Cc1ccccc1 | inconclusive: -1.72% |  |
| NS(=O)(=O)c1ccc(CNC(=O)c2cc(=O)[nH]c3ccccc23)cc1 | inactive: 2.31% |  |
| NC(=O)c1ccsc1NC(=O)c1ccc(S(=O)(=O)N2CCCc3ccccc32)cc1 | inconclusive: -18.5% |  |
